According to the supplement of paper PMC10849652:
This is one part of the list.

Protein sequences, listed by entry. Tags and fused reporters are not part of them. Lines headed by an entry give the natural chain unless they say otherwise; changes in a name come on top.
UniProt Q9NWX6: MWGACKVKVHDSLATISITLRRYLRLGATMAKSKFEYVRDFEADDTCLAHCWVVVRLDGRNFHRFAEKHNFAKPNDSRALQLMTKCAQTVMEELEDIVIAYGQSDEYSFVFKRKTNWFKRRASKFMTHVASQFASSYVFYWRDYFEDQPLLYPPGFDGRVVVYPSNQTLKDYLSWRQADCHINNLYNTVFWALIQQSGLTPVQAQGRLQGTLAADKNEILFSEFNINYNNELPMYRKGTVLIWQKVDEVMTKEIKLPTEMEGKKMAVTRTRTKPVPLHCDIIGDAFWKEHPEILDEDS
UniProt Q9UGI8: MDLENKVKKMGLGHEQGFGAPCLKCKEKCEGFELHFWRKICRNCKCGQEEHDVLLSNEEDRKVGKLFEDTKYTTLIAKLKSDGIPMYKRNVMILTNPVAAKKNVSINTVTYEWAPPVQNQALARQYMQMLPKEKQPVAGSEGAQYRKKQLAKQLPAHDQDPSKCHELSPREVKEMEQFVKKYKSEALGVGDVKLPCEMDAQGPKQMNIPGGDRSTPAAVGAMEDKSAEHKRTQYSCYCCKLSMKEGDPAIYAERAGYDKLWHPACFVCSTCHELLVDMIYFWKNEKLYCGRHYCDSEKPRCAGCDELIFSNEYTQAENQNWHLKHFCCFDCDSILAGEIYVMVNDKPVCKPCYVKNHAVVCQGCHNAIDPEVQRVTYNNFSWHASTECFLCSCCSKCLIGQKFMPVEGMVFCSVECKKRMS
UniProt Q96RS0: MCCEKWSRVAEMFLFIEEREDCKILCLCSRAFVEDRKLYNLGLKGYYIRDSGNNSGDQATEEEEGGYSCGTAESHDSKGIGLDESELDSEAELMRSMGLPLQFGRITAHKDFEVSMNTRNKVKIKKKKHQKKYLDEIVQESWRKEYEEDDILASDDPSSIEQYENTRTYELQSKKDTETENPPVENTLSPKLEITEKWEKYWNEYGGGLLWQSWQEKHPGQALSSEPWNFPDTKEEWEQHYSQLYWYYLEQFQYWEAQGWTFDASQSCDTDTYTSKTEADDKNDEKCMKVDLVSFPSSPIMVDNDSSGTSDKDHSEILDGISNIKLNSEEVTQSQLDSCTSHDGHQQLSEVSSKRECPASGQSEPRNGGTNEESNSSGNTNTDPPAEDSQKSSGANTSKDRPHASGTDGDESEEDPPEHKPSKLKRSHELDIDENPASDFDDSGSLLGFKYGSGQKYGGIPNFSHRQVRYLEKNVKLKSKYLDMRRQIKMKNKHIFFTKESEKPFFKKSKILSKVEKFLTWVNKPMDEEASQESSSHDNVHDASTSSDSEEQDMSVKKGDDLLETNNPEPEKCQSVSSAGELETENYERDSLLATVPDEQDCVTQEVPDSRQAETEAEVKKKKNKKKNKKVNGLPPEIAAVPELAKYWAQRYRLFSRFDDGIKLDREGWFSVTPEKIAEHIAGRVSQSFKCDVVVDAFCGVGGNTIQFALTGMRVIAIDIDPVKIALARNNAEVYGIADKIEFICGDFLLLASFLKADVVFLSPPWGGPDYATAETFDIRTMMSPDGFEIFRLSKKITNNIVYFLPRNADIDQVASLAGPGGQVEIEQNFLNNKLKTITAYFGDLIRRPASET
UniProt O60220: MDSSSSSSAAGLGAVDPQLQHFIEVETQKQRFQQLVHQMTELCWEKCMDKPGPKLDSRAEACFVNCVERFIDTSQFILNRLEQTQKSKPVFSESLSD
UniProt Q96BS2: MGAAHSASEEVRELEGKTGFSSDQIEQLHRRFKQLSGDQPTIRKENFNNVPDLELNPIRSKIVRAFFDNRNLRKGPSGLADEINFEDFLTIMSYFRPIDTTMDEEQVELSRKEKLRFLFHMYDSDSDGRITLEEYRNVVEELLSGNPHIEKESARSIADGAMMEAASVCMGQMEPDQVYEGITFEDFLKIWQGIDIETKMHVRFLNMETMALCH
UniProt P31483: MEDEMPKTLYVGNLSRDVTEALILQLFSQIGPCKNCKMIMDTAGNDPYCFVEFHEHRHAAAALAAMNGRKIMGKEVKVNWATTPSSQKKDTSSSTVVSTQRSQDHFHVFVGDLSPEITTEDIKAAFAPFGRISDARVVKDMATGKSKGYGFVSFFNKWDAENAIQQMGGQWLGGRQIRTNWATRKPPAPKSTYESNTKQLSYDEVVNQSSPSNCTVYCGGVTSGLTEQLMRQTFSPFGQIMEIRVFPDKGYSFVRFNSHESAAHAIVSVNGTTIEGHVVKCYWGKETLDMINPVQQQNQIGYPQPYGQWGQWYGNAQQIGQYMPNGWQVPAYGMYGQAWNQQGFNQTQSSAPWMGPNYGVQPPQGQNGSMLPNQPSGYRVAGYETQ
UniProt Q86XR7, whole entry, looked up: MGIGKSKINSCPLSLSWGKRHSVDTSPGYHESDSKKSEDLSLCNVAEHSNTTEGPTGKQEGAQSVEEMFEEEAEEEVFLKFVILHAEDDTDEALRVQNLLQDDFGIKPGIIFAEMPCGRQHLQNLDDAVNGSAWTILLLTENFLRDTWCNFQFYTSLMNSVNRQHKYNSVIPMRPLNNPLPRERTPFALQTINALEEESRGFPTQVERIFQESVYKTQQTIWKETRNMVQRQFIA
UniProt Q9NZ01: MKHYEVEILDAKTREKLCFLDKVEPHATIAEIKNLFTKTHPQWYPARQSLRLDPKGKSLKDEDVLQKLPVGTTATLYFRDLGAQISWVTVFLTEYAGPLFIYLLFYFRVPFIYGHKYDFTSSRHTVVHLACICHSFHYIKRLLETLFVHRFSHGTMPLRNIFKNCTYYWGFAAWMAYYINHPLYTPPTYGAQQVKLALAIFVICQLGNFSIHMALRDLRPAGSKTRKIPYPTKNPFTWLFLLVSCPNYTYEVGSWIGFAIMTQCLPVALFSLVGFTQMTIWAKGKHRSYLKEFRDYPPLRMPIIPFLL

Legend:
Assay in all cases: log2 fold change, soluble protein after heating vs DMSO (PISA); higher = thermal stabilisation; K562 cells, 10 uM, 30 min; active = over 0.2 and 3.5 SD of the protein, either way, in both replicates (recomputed)
[1] = compound: CC[C@@H]1C(=O)N(C)c2cnc(Nc3ccc(C(=O)NC4CCN(C)CC4)cc3OC)nc2N1C1CCCC1
How it was run: (§1)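 Thermal stability values are relative to control samples and come from duplicates. They are expressed as log2 fold changes. For measurement, K562 cells (2×10^6 cells/mL) received 10 μM compound for 30 min, and aliquots were heated for 3 min over 48°C-58°C, pooled, and extracted at 4°C in PBS with 0.5% NP-40. Soluble protein, the supernatant after 21,000xg for 90 min, was quantified by TMTpro 16plex LC-MS/MS with equalised channel sums.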

[2] = compound: CC[C@@H]1C(=O)N(C)c2cnc(Nc3ccc(C(=O)N[C@H]4CC[C@H](N5CCN(CC6CC6)CC5)CC4)cc3OC)nc2N1C(C)C [volasertib]
How it was run: as §1

[3] = compound: CC[C@H](C)N1C=C(C2=C(C=C(C=C21)C3=CN=C(C=C3)N4CCNCC4)C(=O)NCC5=C(C=C(NC5=O)C)C)C
How it was run: as §1

[4] = compound: CC[C@H](C)[C@@H](C(=O)N[C@@H]([C@@H](C)O)C(=O)N[C@@H](CC(C)C)C(=O)[C@]1(CO1)C)NC(=O)[C@H]([C@@H](C)CC)N(C)C(=O)C [epoxomicin]
How it was run: as §1

[5] = compound: CCn1c(C(=O)N(C2CC2)C2CC2)cc2c3c(ncn3C)c(Nc3cc(C)n(C)n3)nc21
How it was run: as §1

[6] = compound: CCn1cc(-c2ccnc3[nH]c(-c4cccc(CN(C)C)c4)cc23)c(-c2ccc(NC(=O)N(C)C)cc2)n1
How it was run: as §1

[7] = compound: CN(C)CC(=O)Nc1ccc2[nH]c(=O)c3ccccc3c2c1
How it was run: as §1

[8] = compound: CN(CCOC1=CC=C(C=C1)C[C@H]2C(=O)NC(=O)S2)C3=CC=CC=N3 (racemic) [rosiglitazone]
How it was run: as §1

[9] = compound: CN1C2=C(C3=C1C(=O)N(N=C3)CC4=CC(=CC=C4)N)SC(=C2)S(=O)C
How it was run: as §1

[10] = compound: CN1CCC(CNc2ccc3ncc(-c4cccc(OC(F)(F)F)c4)n3n2)CC1
How it was run: as §1

[11] = compound: CN1CCN(CCOc2cc(OC3CCOCC3)c3c(Nc4c(Cl)ccc5c4OCO5)ncnc3c2)CC1 [saracatinib]
How it was run: as §1

[12] = compound: CN1CCN(c2nc(C3=C(c4c[nH]c5ccccc45)C(=O)NC3=O)c3ccccc3n2)CC1 [sotrastaurin]
How it was run: as §1

[13] = compound: CN1CC[C@H](c2c(O)cc(O)c3c(=O)cc(-c4ccccc4Cl)oc23)[C@H](O)C1 [alvocidib]
How it was run: as §1

[14] = compound: CN1CCc2c(c3ccccc3n2Cc2ccc(C(=O)NO)cc2)C1 [Tubastatin A]
How it was run: as §1

[15] = compound: CNC(=O)C1=CC=CC=C1NC2=NC(=NC=C2Cl)NC3=C(C=C(C=C3)N4CCOCC4)OC
How it was run: as §1

[16] = compound: CNC(=O)c1ccc(Nc2ncc(C(F)(F)F)c(NCc3nccnc3N(C)S(C)(=O)=O)n2)cc1 [defactinib]
How it was run: as §1

[17] = compound: CNCc1ccc(-c2[nH]c3cc(F)cc4c3c2CCNC4=O)cc1 [rucaparib]
How it was run: as §1

[18] = compound: CNc1nc(-c2ccc3c(N)n[nH]c3c2)cc(N2C[C@@H](C(=O)NC3CCCCC3)CC[C@H]2C)n1
How it was run: as §1

[19] = compound: COC(=O)N[C@@H](C)CNc1nccc(-c2cn(C(C)C)nc2-c2cc(Cl)cc(NS(C)(=O)=O)c2F)n1 [encorafenib]
How it was run: as §1

[20] = compound: COC(=O)[C@H](CCSC)NC(=O)C1=C(C=C(C=C1)NC[C@H](CS)N)C2=CC=CC=C2
How it was run: as §1

Measured: log2 fold change

THG1L (UniProt Q9NWX6)
inactive: [1] 0.034 | [2] -0.032 | [3] -0.036 | [4] 0.024 | [5] 0.003 | [6] -0.024 | [7] 0.007 | [8] 0.042 | [9] -0.04 | [10] 0.014 | [11] 0.016 | [12] 0.027 | [13] -0.007 | [14] 0.01 | [15] -0.046 | [16] -0.016 | [17] -0.088 | [18] -0.011 | [19] 0.015 | [20] 0.024

TES (UniProt Q9UGI8)
inactive: [1] -0.013 | [2] -0.053 | [3] 0.019 | [4] 0.057 | [5] 0.016 | [6] -0.065 | [7] -0.024 | [8] 0.022 | [9] -0.078 | [10] -0.036 | [11] 0.022 | [12] -0.005 | [13] -0.03 | [14] -0.033 | [15] 0 | [16] -0.017 | [17] -0.022 | [18] -0.029 | [19] -0.02 | [20] 0.024

TGS1 (UniProt Q96RS0)
inactive: [1] 0.031 | [2] -0.261 | [3] 0.126 | [4] -0.059 | [5] -0.122 | [7] -0.081 | [8] -0.027 | [9] 0.046 | [11] -0.075 | [12] -0.028 | [13] -0.14 | [14] -0.094 | [15] -0.03 | [16] -0.225 | [17] 0.071 | [18] 0.14 | [19] 0.055 | [20] -0.004

TIMM8A (UniProt O60220)
inactive: [1] -0.077 | [2] -0.024 | [3] -0.03 | [4] 0.358 | [5] 0.061 | [6] 0.093 | [7] 0.023 | [8] -0.014 | [9] -0.05 | [10] 0.281 | [11] -0.105 | [12] 0.022 | [13] -0.053 | [14] 0.053 | [15] 0.02 | [16] -0.096 | [17] 0.069 | [18] -0.093 | [19] -0.095 | [20] 0.096

Quoted at random: two records from the list, in no set order.
TES (UniProt Q9UGI8)
inactive: [1] -0.013 | [2] -0.053 | [3] 0.019 | [4] 0.057 | [5] 0.016 | [6] -0.065 | [7] -0.024 | [8] 0.022 | [9] -0.078 | [10] -0.036 | [11] 0.022 | [12] -0.005 | [13] -0.03 | [14] -0.033 | [15] 0 | [16] -0.017 | [17] -0.022 | [18] -0.029 | [19] -0.02 | [20] 0.024

TIMM8A (UniProt O60220)
inactive: [1] -0.077 | [2] -0.024 | [3] -0.03 | [4] 0.358 | [5] 0.061 | [6] 0.093 | [7] 0.023 | [8] -0.014 | [9] -0.05 | [10] 0.281 | [11] -0.105 | [12] 0.022 | [13] -0.053 | [14] 0.053 | [15] 0.02 | [16] -0.096 | [17] 0.069 | [18] -0.093 | [19] -0.095 | [20] 0.096

Going on with the list.

TESC (UniProt Q96BS2)
inactive: [1] -0.062 | [2] -0.046 | [3] 0.054 | [4] 0.123 | [5] 0.068 | [6] 0 | [7] -0.028 | [8] 0.09 | [9] -0.067 | [10] -0.08 | [11] 0.143 | [12] 0.028 | [13] -0.135 | [14] -0.052 | [15] 0.01 | [16] -0.018 | [17] -0.074 | [18] -0.157 | [19] 0.047 | [20] 0.057

TIA1 (UniProt P31483)
inactive: [1] 0.037 | [2] -0.005 | [3] 0.02 | [4] -0.043 | [5] -0.038 | [6] -0.053 | [7] -0.004 | [8] -0.015 | [9] 0.011 | [10] 0.09 | [11] 0.046 | [12] 0.002 | [13] -0.061 | [14] -0.034 | [15] -0.006 | [16] 0.09 | [17] 0.03 | [18] -0.01 | [19] -0.035 | [20] -0.003

TICAM2 isoform 2 (UniProt Q86XR7)
inactive: [1] 0.008 | [2] 0.029 | [3] -0.011 | [4] 0.152 | [5] 0.059 | [6] -0.051 | [7] 0.031 | [8] 0.004 | [9] -0.041 | [10] -0.031 | [11] 0.024 | [12] 0.015 | [13] 0.022 | [14] -0.013 | [15] -0.049 | [16] 0.017 | [17] 0.01 | [18] -0.033 | [19] 0.007 | [20] -0.014

TECR (UniProt Q9NZ01)
inactive: [1] -0.116 | [3] 0.015 | [4] 0.026 | [6] -0.085 | [7] 0.042 | [9] -0.063 | [11] -0.018 | [12] -0.007 | [14] -0.035 | [15] -0.07 | [16] -0.022 | [17] 0.03 | [18] -0.017 | [19] 0.045 | [20] -0.028
active: [2] -0.24 | [10] -0.347
